# Primary screen of a compound library

By UniProt entry, the sequences of proteins in these tests, tags left out.
UniProt I6X8D2, whole entry: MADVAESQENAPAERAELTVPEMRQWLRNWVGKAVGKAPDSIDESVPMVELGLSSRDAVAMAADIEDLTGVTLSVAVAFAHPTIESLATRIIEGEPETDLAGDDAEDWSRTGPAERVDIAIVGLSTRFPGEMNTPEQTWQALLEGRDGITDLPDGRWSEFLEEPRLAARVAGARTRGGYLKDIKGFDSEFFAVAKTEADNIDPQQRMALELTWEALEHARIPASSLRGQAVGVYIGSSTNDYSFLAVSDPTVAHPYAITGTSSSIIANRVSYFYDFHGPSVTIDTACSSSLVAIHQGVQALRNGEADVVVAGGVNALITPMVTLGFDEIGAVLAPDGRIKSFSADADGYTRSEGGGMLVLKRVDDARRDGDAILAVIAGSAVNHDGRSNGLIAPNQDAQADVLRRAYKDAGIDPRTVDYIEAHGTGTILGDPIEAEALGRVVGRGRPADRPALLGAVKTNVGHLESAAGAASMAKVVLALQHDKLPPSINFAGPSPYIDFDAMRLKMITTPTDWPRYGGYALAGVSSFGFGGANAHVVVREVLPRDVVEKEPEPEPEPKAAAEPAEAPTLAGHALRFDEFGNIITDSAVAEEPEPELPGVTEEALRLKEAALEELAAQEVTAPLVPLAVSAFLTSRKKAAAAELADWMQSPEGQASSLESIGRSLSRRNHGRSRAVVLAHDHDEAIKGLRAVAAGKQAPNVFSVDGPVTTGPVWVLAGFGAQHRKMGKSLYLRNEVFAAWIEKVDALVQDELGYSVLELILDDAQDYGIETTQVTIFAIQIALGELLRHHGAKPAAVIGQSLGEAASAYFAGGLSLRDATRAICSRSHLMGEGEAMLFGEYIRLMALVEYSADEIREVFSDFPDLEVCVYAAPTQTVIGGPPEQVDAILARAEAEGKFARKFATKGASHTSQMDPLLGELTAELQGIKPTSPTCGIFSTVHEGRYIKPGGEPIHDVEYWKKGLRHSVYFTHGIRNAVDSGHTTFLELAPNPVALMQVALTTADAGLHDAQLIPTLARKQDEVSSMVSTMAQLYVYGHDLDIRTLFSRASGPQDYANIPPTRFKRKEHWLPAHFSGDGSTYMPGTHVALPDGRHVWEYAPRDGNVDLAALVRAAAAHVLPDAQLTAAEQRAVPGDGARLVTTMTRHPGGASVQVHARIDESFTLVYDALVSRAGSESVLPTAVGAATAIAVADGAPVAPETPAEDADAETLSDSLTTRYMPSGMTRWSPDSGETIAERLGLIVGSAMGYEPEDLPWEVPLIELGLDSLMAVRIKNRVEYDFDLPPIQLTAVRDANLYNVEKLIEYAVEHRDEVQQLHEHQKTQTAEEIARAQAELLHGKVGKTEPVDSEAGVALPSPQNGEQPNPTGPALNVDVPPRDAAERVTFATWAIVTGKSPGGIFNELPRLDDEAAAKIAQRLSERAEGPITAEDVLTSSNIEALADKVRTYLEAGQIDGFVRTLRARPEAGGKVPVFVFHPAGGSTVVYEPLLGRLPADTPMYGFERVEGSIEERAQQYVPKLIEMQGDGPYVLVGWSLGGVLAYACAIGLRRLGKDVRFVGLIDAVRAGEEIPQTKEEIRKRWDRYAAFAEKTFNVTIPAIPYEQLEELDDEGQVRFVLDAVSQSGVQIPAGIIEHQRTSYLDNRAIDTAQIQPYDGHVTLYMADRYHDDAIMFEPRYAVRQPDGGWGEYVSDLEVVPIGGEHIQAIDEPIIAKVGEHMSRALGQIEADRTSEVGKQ
UniProt P9WNZ1, whole entry: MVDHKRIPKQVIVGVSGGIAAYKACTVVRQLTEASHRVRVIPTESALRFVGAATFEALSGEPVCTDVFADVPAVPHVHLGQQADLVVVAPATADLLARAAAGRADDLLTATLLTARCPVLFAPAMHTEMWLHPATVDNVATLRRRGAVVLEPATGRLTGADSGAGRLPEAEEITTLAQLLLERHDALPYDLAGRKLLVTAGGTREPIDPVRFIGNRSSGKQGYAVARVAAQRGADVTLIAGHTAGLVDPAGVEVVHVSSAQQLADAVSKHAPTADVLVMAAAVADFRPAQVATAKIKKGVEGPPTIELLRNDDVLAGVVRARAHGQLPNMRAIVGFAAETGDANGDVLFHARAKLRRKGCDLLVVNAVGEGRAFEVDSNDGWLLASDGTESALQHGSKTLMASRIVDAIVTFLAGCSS
UniProt P9WFT3, whole entry: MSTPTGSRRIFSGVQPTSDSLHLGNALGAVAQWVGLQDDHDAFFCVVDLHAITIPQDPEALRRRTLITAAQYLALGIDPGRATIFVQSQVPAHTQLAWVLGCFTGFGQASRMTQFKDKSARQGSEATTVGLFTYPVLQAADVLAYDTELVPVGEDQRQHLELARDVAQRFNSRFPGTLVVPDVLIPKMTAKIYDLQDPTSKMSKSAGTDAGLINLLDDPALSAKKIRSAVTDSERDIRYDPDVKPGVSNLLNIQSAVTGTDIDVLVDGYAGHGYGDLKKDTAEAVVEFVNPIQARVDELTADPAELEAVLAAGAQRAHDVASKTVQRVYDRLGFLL

Results are given as percent effect. How 0% and 100% were set is not recorded. Most values in the screen are low, and negative values occur. Compounds were drawn at random from those tested, without regard to their results. Two or more numbers in one place are separate tests of the same structure; such repeats can differ widely. A dash means the value is not listed here; it may have been measured.

A: 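Enzyme assay of the thioesterase domain of polyketide synthase 13; the read-out is not stated. Target: Polyketide synthase Pks13, Mycobacterium tuberculosis (UniProt I6X8D2). Concentration: 30 µM. Higher reads as stronger inhibition (inferred from which compounds were picked for retests). About 67,000 compounds were tested under these conditions; 0.46% (about 300) showed 50% or more at least once.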
B: 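Enzyme assay of CoaBC with a phosphate dye (Biomol Green) read at 650 nm. Target: Coenzyme A biosynthesis protein CoaBC, Mycobacterium tuberculosis (UniProt P9WNZ1). Compounds at 30 µM. Direction is inferred from only a few compounds that gave an IC50; most scored high, so higher reads as stronger inhibition. Most strong results did not repeat in a second test. About 67,000 compounds were tested under these conditions; 0.06% (about 40) showed 50% or more at least once.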
C: 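Cell assay of Leishmania donovani living inside macrophages; the read-out is not stated. Compounds at 30 µM. The record gives no direction; compounds that gave an IC50 in retests scored well above the rest, so higher reads as stronger inhibition. Of about 69,000 compounds tested this way, about 1,000 (1.5%) reached 50% or more in at least one test.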
D: 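Tryptophan-tRNA ligase, Mycobacterium tuberculosis (UniProt P9WFT3). Enzyme assay of tryptophanyl-tRNA synthetase; the read-out is not stated. Concentration: 10 µM. Direction is not recorded; retested compounds ran higher, which suggests that high means inhibition. Size under these conditions: about 65,000 compounds, about 64 of them at 50% or above in at least one test.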

Compound,A,B,C,D
O=C(c1ccccc1F)N1CCN(c2ccc(-n3cccn3)nn2)CC1,-5.697,0.4202,9.249,12.35
Cn1cccc1C(=O)N1CCC2(CCCN2Cc2ccccc2)CC1,-0.4886,6.303,-,-4.534
CNC(=O)[C@H]1CCS(=O)(=O)[C@@H]2CN(Cc3ccc(OC)cc3)C[C@H]12,-13.75,7.66,-,-5.629
Cc1nn(C)cc1-c1cc(C(F)(F)F)c2c(C)nn(CC(=O)O)c2n1,6.282,5.105,-13.37,-4.083
CCc1sc(C(=O)Nc2cnn(CCN(C)C)c2)cc1C,-78.29,-19.12,11.76,0.1874
Cc1ncc2c(n1)CN(CC(=O)N1CCc3sccc3C1)CC2,8.923,2.445,31.35,4.933
CCn1ncc2c1CCCC2NCc1cccc2c1OCCO2 (stereo not drawn),-10.96,0,37.21,0.8772
OCC1COCCN(c2ncccc2C(F)(F)F)C1 (stereo not drawn),-24.98,-4.156,18.81,1.639
O=C(Nc1cccc(CNCc2cccnc2)c1)C1CCCC1,-9.007,1.37,23.29,3.677
NC(=O)[C@@H]1Cc2ccccc2N1C(=O)C1CC(c2ccccc2)=NO1 (stereo partly drawn),2.697,5.912,14.55,-2.313
CC(c1ccccc1Cl)N(C(=O)CSCC(N)=O)C1CC1 (stereo not drawn),12.39,-4.839,-2.712,3.638
Cc1nc(CN2CCC23CCN(C(=O)c2ccncc2)CC3)cs1,-22.29,-,26.64,-1.26
COc1ccc(Cn2nc(C(N)=O)ccc2=O)c(Cl)c1,-,12.75,-15.57,-3.725
COCC1CN(C(=O)c2ccco2)Cc2nccn2C1 (stereo not drawn),-12.89,-0.1236,33.41,-5.383
O=C(O)C(F)(F)F.O=C(O)C(F)(F)F.[H][C@@]12CN(Cc3ccc(C)s3)CCC[C@]1(C(=O)O)CN(CC1CC1)C2,-,-,39.1,-
Cc1nc(C)n(CC2CCCN2CC(=O)NCCC#N)n1 (stereo not drawn),2.333,5.443,-11.51,-5.031
Cc1ccc(CC(=O)N2CCc3nnc(N(C)C)cc3C2)s1,-17.45,0,21.9,-6.016
Cc1nc(C)n(CC2CCCN2CCC(=O)N2CCCCC2)n1 (stereo not drawn),-8.331,4.439,7.285,-3.386
O=C(NCc1cccnc1)c1nc2c(s1)CCCN2C(=O)C1CC1.O=C(O)C(F)(F)F,-,-,10.59,-
CCS(=O)(=O)N1CC[C@H]2[C@H]1CC(=O)N2Cc1csc(C)n1,-2.619,10.18,-,6.537
CN1CCN(C(=O)c2n[nH]c3c2CN(C2CCOCC2)CC3)CC1,-15.79,1.931,-,-1.453
Cc1nc(C2CCCN(C(=O)c3ccc(OCC4CC4)cc3)C2)no1 (stereo not drawn),-14.89,5.509,5.909,1.462
CC(=O)N1N=C(c2cccs2)OC1C(=O)Nc1ccccc1 (stereo not drawn),-4.808,0.7282,47.17,-
CO[C@H]1CCN(C(=O)Cc2ccc(F)cc2)[C@H]1Cc1ccncc1,3.201,2.788,12.97,-
Cc1nc(C(C)C)sc1C(=O)N(C)Cc1nc(-c2ccccn2)no1,-11.53,13.29,7.043,-5.531
O=C(O)C(F)(F)F.O=C1CC(c2ccccc2)C2(CCN(C(=O)c3ccncc3F)CC2)N1 (stereo not drawn),-,-,29.7,-
CSCC[C@@H]1CN2CCC[C@H]2CN1Cc1coc2ccc(Cl)cc2c1=O,-2.586,1.314,-,-12.3
O=C(Nc1ccccc1)C1CN(Cc2cccs2)CC12CCOCC2 (stereo not drawn),-32.44,7.667,-1.436,3.133
CCc1noc(C2CCCCN2C(=O)c2ccccc2)n1 (stereo not drawn),-16.19,-5.353,-11.89,0.2547
Cc1nc(C)c(C)c(NCc2cnn3cccnc23)n1,-33.05,0,15.17,0
c1ccc(N2CCC(c3ccncc3)CC2)cc1,9.036,17.76,6.949,0.6596
Br.Cn1cc(CN2CCOC(c3cccc(-c4cncnc4)n3)C2)cn1 (stereo not drawn),-,-,-29.56,-
CCc1ccc(C(=O)N2CC[C@H](Oc3cccnc3C)[C@@H](O)CC2)cc1,-6.629,-1.214,-7.516 & 23.24,-
COc1ncc(CN2CCC3(CCCN(CC4CCC4)C3)C2)cn1 (stereo not drawn),-5.339,2.67,7.745,1.152
[H][C@@]12CCC(=O)N(c3ccccc3)[C@]1([H])CCN2C(=O)c1ccc(C)o1,-,-,15.45,-
Cc1cc(C)n(CC2CN(Cc3cccc(C#N)c3)CCO2)n1 (stereo not drawn),-0.5702,3.807,-7.22,2.518
CCS(=O)(=O)N1CCC2(CC1)CN(c1ccsc1)C(=O)CO2,0.2001,1.5,-21.06,-5.786
C[S+]([O-])CCNC(=O)Nc1cc(F)ccc1-n1cccn1 (stereo not drawn),-3.273,-19.21,-12.68,7.802
CCN(CC)C1CCN(C(=O)NCc2nncn2CC)CC1,-17.86,4.302,15.24,-5.659
CNc1nc(CNC(=O)Nc2cccc(Cl)c2OC)cs1,-16.51,1.648,28.86,-1.193
COCCc1noc(CN2CCOC(Cn3cc(C)cn3)C2)n1 (stereo not drawn),-15.63,-10.99,25.88,-2.783
CCC(NC1CCCC1)c1ccc(S(C)(=O)=O)cc1 (stereo not drawn),-29.46,5.926,-11.58,-6.108
Cc1nc(C)n(CC2CN(Cc3cccnc3)Cc3nccn3C2)n1 (stereo not drawn),20.23,-5.14,-,-2.634
O=C(O)C(F)(F)F.[H][C@@]12CCC(=O)N(CCOC)[C@@]1([H])CCN2Cc1c(C)noc1C,-,-,-7.492,-
O=S(=O)(c1ccc(Cl)cc1)N1CCc2nc(C3CCNCC3)ncc2C1,-,-0.2451,-,-
C[C@H](N)Cn1nc(-c2cccs2)oc1=O.Cl,-,-,9.702,-
COc1c(C)cnc(CN2CCCCC2CCN2CCOCC2)c1C (stereo not drawn),-,5.16,8.765,0.5228
CC(C)Oc1ccc(C(=O)NCc2ccc3c(c2)CCCN3C)cn1,2.935,2.36,10.77,-1.089
O=C(c1ccc(-c2cccs2)cc1F)N1CCN(CCO)CC1,-29.37,5.242,2.849,-6.757

Once more, the final 3:

Compound,A,B,C,D
COc1c(C)cnc(CN2CCCCC2CCN2CCOCC2)c1C (stereo not drawn),-,5.16,8.765,0.5228
CC(C)Oc1ccc(C(=O)NCc2ccc3c(c2)CCCN3C)cn1,2.935,2.36,10.77,-1.089
O=C(c1ccc(-c2cccs2)cc1F)N1CCN(CCO)CC1,-29.37,5.242,2.849,-6.757

Measurements from “University of Dundee, Small-Polar-MMV Screening Library” (2021), ChEMBL document CHEMBL3988442.